Literature values, collected in US20090227575A1, “7H-PYRROLO[2,3-H]QUINAZOLINE COMPOUNDS, THEIR USE AS mTOR KINASE AND PI3 KINASE INHIBITORS, AND THEIR [sequence]” (Wyeth, priority 2008, published 2009).
For at least one compound, name, drawing or mass did not settle the structure.

Protein sequences, listed by entry. Tags and fused reporters are not part of them. Lines headed by an entry give the natural chain unless they say otherwise; changes in a name come on top.
UniProt Q96Q15: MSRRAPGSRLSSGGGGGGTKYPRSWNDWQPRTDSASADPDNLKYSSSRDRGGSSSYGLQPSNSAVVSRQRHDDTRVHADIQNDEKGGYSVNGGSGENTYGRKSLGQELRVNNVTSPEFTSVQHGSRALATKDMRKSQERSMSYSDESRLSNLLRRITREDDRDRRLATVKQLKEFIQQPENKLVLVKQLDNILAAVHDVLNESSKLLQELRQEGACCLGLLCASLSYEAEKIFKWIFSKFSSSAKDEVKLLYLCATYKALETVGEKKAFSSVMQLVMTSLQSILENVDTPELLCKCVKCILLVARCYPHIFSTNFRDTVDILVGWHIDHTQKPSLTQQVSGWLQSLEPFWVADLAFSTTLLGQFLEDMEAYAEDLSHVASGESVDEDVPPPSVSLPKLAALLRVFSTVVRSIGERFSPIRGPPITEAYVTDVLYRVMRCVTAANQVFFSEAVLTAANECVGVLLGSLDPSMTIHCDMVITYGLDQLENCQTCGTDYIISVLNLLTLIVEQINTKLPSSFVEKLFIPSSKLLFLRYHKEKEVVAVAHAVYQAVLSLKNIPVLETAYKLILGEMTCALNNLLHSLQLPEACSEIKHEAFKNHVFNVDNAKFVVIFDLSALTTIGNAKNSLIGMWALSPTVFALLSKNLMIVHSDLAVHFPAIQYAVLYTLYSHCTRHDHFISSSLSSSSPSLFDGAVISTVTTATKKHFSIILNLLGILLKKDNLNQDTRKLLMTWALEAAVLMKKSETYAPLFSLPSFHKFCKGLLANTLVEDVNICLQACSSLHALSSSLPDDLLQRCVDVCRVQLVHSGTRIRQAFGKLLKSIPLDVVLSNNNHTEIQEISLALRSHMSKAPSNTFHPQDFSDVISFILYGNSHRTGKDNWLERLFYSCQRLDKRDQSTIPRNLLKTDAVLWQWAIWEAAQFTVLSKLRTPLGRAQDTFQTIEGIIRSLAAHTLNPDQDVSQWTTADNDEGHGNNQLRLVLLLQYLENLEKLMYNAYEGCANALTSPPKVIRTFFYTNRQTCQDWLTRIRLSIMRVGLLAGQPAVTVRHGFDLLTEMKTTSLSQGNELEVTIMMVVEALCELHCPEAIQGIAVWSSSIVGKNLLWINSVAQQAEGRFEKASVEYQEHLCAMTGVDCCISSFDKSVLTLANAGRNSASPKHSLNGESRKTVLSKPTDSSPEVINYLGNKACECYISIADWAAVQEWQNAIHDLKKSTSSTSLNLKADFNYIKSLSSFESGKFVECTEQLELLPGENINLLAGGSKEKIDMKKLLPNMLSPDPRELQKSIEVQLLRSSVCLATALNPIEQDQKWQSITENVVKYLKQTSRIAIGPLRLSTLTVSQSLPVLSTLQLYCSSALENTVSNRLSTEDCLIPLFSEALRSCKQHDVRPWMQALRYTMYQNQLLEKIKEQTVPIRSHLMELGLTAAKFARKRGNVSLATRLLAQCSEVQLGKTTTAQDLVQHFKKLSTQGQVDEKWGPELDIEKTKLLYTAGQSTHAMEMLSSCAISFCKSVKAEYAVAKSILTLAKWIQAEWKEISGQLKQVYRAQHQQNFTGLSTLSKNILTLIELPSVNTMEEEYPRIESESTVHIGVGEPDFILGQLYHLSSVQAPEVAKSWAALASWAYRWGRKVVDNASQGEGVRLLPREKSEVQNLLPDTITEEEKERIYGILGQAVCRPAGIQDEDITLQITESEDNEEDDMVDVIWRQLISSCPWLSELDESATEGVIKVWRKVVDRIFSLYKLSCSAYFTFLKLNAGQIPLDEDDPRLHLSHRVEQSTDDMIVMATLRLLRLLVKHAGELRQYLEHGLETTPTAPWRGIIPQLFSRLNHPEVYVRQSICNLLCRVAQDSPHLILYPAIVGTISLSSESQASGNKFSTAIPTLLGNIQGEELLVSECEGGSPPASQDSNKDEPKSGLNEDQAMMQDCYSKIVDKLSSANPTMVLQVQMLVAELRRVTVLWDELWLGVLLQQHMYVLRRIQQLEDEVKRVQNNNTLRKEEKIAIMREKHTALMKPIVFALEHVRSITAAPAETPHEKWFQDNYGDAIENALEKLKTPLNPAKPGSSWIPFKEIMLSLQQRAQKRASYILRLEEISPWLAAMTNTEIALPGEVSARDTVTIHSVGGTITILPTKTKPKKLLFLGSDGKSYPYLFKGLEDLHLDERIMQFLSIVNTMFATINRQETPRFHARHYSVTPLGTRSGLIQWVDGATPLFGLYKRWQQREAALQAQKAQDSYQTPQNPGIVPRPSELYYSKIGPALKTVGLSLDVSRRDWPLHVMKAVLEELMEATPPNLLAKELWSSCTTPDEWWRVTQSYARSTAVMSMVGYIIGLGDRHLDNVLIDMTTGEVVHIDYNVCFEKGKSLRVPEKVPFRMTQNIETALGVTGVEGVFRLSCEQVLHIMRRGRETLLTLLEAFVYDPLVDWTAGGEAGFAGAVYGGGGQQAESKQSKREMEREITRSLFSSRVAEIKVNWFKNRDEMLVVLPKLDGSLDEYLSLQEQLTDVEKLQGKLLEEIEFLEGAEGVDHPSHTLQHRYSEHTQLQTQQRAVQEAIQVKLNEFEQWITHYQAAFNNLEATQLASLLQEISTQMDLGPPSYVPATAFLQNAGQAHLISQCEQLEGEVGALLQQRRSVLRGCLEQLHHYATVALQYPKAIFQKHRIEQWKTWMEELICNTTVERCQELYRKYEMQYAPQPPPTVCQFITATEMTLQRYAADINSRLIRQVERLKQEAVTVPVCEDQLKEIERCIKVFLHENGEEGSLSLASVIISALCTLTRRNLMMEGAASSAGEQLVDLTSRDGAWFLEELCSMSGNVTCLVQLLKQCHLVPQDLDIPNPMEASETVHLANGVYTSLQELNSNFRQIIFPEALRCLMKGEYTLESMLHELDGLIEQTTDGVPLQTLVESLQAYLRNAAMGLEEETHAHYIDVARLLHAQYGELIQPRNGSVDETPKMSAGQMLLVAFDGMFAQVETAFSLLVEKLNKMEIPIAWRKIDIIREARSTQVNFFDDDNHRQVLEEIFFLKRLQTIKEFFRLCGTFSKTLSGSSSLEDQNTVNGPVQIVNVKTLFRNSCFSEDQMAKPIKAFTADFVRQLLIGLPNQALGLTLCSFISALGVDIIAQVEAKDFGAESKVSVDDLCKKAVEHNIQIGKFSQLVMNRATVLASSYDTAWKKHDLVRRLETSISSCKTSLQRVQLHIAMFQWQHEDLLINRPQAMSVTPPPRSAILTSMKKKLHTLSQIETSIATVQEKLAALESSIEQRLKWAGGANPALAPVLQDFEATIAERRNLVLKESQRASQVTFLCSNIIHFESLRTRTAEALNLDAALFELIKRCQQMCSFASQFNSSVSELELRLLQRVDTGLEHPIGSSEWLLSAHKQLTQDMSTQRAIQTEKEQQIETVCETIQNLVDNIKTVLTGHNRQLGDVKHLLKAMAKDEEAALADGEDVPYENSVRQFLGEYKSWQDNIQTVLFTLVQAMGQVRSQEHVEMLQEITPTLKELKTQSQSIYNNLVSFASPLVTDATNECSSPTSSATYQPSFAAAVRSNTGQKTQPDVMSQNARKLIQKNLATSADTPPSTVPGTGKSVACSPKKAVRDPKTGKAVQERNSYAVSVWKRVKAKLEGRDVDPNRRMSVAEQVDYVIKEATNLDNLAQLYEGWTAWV

Key:
hSMG-1 = hSMG-1 (Homo sapiens, UniProt Q96Q15); conditions: in the presence of purified recombinant FKBP12; cited from earlier work
[1] = test system: mouse cancer models of prostrate, breast, ovarian, lung, multiple myeloma, and brain cancers; conditions: cited from earlier work

| Compound | inhibition of the kinase activity of hSMG-1 (hSMG-1) | activity in preclinical mouse cancer models [1] |
| --- | --- | --- |
| CO[C@H]1C[C@@H]2CC[C@@H](C)[C@@](O)(O2)C(=O)C(=O)N2CCCC[C@H]2C(=O)O[C@H]([C@H](C)C[C@@H]2CC[C@@H](O)[C@H](OC)C2)CC(=O)[C@H](C)/C=C(\C)[C@@H](O)[C@@H](OC)C(=O)[C@H](C)C[C@H](C)/C=C/C=C/C=C/1C [Rapamycin] | does not inhibit |  |
| N=C(N)NCCC[C@H](NC(=O)CCC(=O)OC[N+]1(c2cc(=O)c3cccc(-c4ccccc4)c3o2)CCOCC1)C(=O)NCC(=O)N[C@@H](CC(=O)O)C(=O)N[C@@H](CO)C(=O)[O-] [SF-1126] |  | active |
